# Measurements taken from doi:10.1101/2020.01.02.893115.
# Chains of the proteins cited; added tags and fusions are not shown.
# UniProt Q9FPR3: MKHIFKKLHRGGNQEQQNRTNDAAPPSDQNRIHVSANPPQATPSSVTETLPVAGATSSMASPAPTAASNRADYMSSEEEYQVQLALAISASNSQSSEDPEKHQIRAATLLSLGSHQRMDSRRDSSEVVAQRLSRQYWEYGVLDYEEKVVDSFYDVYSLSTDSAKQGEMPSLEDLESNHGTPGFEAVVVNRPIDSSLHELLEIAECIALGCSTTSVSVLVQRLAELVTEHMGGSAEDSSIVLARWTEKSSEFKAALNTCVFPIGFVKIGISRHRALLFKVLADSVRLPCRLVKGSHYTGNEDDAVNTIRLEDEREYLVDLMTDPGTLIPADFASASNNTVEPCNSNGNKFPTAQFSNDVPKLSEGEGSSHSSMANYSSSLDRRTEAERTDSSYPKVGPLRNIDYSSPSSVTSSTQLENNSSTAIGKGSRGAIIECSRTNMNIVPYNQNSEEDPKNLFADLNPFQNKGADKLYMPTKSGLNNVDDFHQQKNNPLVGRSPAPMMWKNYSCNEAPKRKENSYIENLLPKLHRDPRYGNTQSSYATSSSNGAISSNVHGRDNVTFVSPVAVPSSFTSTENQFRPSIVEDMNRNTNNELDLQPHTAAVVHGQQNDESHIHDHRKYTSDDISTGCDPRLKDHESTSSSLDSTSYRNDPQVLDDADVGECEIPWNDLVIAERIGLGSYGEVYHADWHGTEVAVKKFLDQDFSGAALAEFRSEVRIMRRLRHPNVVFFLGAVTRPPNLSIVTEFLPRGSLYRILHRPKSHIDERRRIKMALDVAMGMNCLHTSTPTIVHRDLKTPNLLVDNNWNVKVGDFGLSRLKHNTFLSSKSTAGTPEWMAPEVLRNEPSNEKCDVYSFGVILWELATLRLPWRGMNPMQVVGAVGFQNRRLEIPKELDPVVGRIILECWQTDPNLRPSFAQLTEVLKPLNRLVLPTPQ
# These are yes or no findings as the source states them, for the method shown. Binding seen in cells or lysates may run through a third protein. Binding calls can cover weak binding; strength is not graded here.
# Target: EDR1-sYFP (Arabidopsis thaliana) (UniProt Q9FPR3)
# Assay: co-IP
substance,measurement,value
NAA50 transiently expressed in N. benthamiana (from UniProt F4JWH4) (enzyme),binding,binds
